# Library screen at single concentrations

The values are deposited in ChEMBL (CHEMBL3988442, “University of Dundee, Small-Polar-MMV Screening Library” (2021)).

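Growth of Mycobacterium tuberculosis over 4 days (cholesterol / DPPC medium with tyloxapol); the read-out is not stated. Concentration: 50 µM. The record gives no direction; compounds that gave an IC50 in retests scored well above the rest, so higher reads as more growth inhibition. About 69,000 compounds were tested under these conditions; 0.54% (about 370) showed 50% or more at least once.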

Each number is a percent effect as filed. The record does not define 0% and 100%; most values in the screen are far below 50% and negative numbers occur (in some assays of this library far below -100). This is an unselected part of the compounds tested. Two or more numbers in one place are separate tests of the same structure; such repeats can differ widely.

| Compound | percent effect |
|---|---|
| `CCn1ccnc1CN1CCN(CC(=O)NC2CCOCC2)CC1` | -10.23 |
| `CN1CCN([C@H]2CCN(C(=O)c3cc(Cl)cn3C)C[C@H]2CCCO)CC1` | 11.11 |
| `CN1CCC2(C=C(C(=O)N(C)C)c3ccccc32)CC1` | -1.678 |
| `COCCC1COC2(CCN(C(=O)c3ccncc3)CC2)C1.O=C(O)C(F)(F)F` (stereo not drawn) | 1.155 and 1.295 |
| `O=C(O)c1cc2c(c(S(=O)(=O)N(CCCO)c3ccccc3)c1)CCC2` | -1.78 |
| `COc1ccc(NC(=O)C(c2cccc(F)c2)N2CCOCC2)cc1` (stereo not drawn) | -5.839 |
| `Cc1nc(Nc2ncc(C)s2)cc(C2CCCN2)n1.Cl` (stereo not drawn) | 30.02 and 22.67 |
| `O=C(O)C(F)(F)F.O=C(O)C(F)(F)F.O=C(O)C(F)(F)F.[H][C@@]12C[C@@H](OCc3cccnc3)CN1CCN(Cc1nccn1C)C2` | 8.061 |
| `Cc1cccc(-c2noc(CN3CCCC3Cn3cccn3)n2)c1` (stereo not drawn) | 10.23 |
| `Cc1nc2cc(C(=O)N3C[C@@H](C(=O)O)[C@H](C4CC4)C3)ccc2[nH]1` | 0.6413 |
| `Cc1csc(CN2CCC[C@]3(C[C@H](OCC4CC4)CO3)C2)n1` | 32.47 |
| `c1coc(-c2nc(CN3CCCC(Cn4cncn4)C3)cs2)c1` (stereo not drawn) | -30.63 |
| `CCn1cc2c(n1)C(COC)CN(C(=O)COc1ccccc1)C2` (stereo not drawn) | -7.449 and -21.23 |
| `CN(c1ccncn1)C1CC2(CCN(C(=O)Cc3cccs3)C2)C1` (stereo not drawn) | -1.777 |
| `O=C(Cc1ccc2c(c1)OCCO2)NC1CCN(CC(F)F)CC1` | -15.23 |
| `COCCn1cnc2ccc(NC(=O)c3ccccn3)cc2c1=O` | 17.89 |
| `Cc1c[nH]c(CN2CCC3(CCCN(Cc4ccc(F)c(F)c4)C3)C2)n1` (stereo not drawn) | 12.3 |
| `COC(=O)N1CCCCC1C(=O)N1CCN(c2ncccc2C)CC1` (stereo not drawn) | 4.55 |
| `CNc1cc(N2CCCC2CNCc2cnc(C)cn2)ncn1` (stereo not drawn) | -11.25 |
| `Cn1nc2c(cc1=O)CN(c1ncnc3ccsc13)CC2` | -4.119 |
| `Cc1nc(C)n(C2CCCN(C(=O)c3ncoc3C(C)C)C2)n1` (stereo not drawn) | -18.48 |
| `Cc1cccnc1NC(=O)NC(CCO)C(C)(C)C` (stereo not drawn) | -20.11 |
| `COc1ccc(C(O)CNC(=O)NCc2nc(C)cs2)cc1` (stereo not drawn) | 0.8625 |
| `Fc1cnc(N2CCn3c(CN4CCCC4)nnc3C2)nc1.O=C(O)C(F)(F)F` | 10.89 |
| `O=C(O)C(F)(F)F.O=C(O)C(F)(F)F.[H][C@@]12COC[C@]1(COCc1ccccn1)CN(c1cc(OC)ncn1)C2` | -15.45 |
| `O=C(NCc1ccc2c(c1)OCO2)[C@@H]1C=CCN1c1ncccn1` | 14.94 |
| `Cc1cc2c(=O)n3c(nc2s1)CCN(Cc1cnc(C)n1C)CC3.Cl` | 3.714 |
| `[H][C@@]12CCN(C(=O)c3cc(C)on3)C[C@@]1([H])O[C@@H](c1ccncn1)C2` | -17.64 |
| `CC(C)(C)n1ncc2c(=O)n(CC(=O)NCc3ccco3)cnc21` | -22.47 |
| `[H][C@@]12CNC[C@]1([H])[C@H]2C(=O)N1CCC(Sc2ccccc2C)CC1` | -11.45 |
| `O=C(NCC1OCCc2cn(CC3CCOCC3)nc21)c1ccncc1.O=C(O)C(F)(F)F` (stereo not drawn) | -6.153 |
| `Cc1ccc(C(=O)Nc2nnc(C(C)C)s2)c(-n2cnnn2)c1C` | -13.09 |
| `Cc1cc(C)nc(NC(=O)C(C)Oc2ccc3c(c2)OCO3)n1` (stereo not drawn) | -3.171 |
| `Cc1cccc(S(=O)(=O)NCC(C)N2CCN(C)CC2)c1Cl` (stereo not drawn) | -23.39 |
| `O=C(O)C(F)(F)F.O=C(O)C(F)(F)F.[H][C@@]12COC[C@]1(COc1ccccn1)CN(Cc1ccoc1)C2` | 4.228 |
| `Cc1cnn(C2CN(c3nc(-c4ccncc4)nc4c3CCC4)C2)c1` | 8.845 |
| `CSC(C)(C)CNC(=O)NC1CCN(CC2CC2)C1` (stereo not drawn) | -8.204 and -11.22 |
| `CCn1c(C)nnc1SCCNc1nc(C)nc2ncccc12` | 10.5 |
| `O=C(O)C(F)(F)F.O=C(O)C(F)(F)F.[H][C@]12CCC[C@@H](CN(C)C)[C@@]1([H])CN(Cc1ccc(OC)nc1)C2` | -4.17 |
| `CN1CCOC(CNCCOc2cccc(C#N)c2)C1` (stereo not drawn) | -0.5242 and 79.98 |
| `O=C(CN1CCCS(=O)(=O)CC1)NCc1ccccc1F` | -22.9 |
| `CN(C)c1cncc(C2CCN(CCO)CC2)n1` | -15.94 |
| `Cc1cc(C(=O)NCc2cccnc2N(C)C)c(C)o1` | -14.59 |
| `Cc1nc2c(NCC(C)N(C)c3ccccc3)ncnc2o1` (stereo not drawn) | 22.71 |
| `COCc1cccc(C(=O)N2CCCCC2c2nccs2)c1` (stereo not drawn) | 20.23 |
| `CCc1nc(NC2CCCN(C(=O)c3cccs3)C2)c2cnn(C)c2n1` (stereo not drawn) | 51.85 |
| `CCn1cc(CN2CCc3nc(-c4ccccn4)nc(O)c3C2)cn1` | 0.3123 |
| `Cc1ccc(C(=O)NCCCN2CCOCC2)c(Cl)c1` | -1.616 |
| `O=C(Nc1cccc(CN2CCOC2=O)c1)N1CCOCC1` | -22.13 |
| `CSc1nc2ccsc2c(=O)n1CC(=O)NC1CCCCC1` | 11.66 |
| `COc1ccc(-c2nc(C#N)c(N(C)C)o2)cc1S(=O)(=O)N1CCCC1` | 16.92 |
| `CSc1ccc(NC(=O)NCc2nncn2C2CC2)cc1F` | 22.64 and -4.441 |
| `NC(=O)N1CCCC1COC(=O)c1cc(F)ccc1F` (stereo not drawn) | 9.685 |
| `CCc1nc(C2CCCN2C(=O)CCc2c(C)noc2Cl)no1` (stereo not drawn) | -3.977 |
| `Cc1nn(C)c(C)c1-c1ccnc(N2CCCN(CC(C)C)CC2)n1` | 16.82 and 10.21 |
| `CCOc1ccc(C(C)Nc2ncnc3c2CCNC3)cc1OCC` (stereo not drawn) | 12.96 |
| `CN(C(=O)c1ccncc1Cl)c1ccccc1S(C)(=O)=O` | -12.2 |
| `CC(NCc1cccc(C#N)c1)c1ccccn1.Cl` (stereo not drawn) | -27.32 |
| `CNC(=O)c1ccc(NC(=O)NC(C)c2cc(C)oc2C)c(C)c1` (stereo not drawn) | 4.622 |
| `Cc1c2ncn(CC(=O)c3ccccc3)c(=O)c2nn1C` | -3.153 |
| `CC(C)(O)CN1CCN(C(=O)c2ccc(Cl)c3cccnc23)CC1` | -9.4 |